No constants are given. Whether binding was seen depends on the method and setting.

This passage reports binding results from PMC11417211.

In the assay the target is T1, complement protein C2 (human) (UniProt P06681).
T1 sequence: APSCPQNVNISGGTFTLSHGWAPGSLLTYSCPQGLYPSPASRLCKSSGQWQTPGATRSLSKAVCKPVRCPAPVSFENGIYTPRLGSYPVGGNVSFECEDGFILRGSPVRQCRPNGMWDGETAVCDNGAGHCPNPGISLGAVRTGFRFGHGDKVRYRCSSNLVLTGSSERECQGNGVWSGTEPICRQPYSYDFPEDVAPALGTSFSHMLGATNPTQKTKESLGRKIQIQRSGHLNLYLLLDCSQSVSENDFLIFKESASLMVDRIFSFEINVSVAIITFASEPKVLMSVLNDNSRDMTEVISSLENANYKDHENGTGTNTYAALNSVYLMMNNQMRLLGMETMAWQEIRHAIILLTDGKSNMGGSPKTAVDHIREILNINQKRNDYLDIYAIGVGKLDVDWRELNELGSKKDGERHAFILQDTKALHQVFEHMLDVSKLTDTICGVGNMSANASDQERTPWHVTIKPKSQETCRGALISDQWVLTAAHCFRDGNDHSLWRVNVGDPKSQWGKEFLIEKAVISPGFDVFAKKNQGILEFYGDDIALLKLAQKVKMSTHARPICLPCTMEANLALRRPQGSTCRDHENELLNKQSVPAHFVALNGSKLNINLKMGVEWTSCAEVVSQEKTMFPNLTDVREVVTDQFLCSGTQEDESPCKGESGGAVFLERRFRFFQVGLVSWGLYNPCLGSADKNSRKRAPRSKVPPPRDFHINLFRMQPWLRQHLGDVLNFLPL
As to the kind of experiment: ELISA; complement proteins coated at 0.2 μg/well in bicarbonate/carbonate buffer; eHAMpin-1 at 1.5 μM; detected with HRP-conjugated anti-His antibody; both purified.

In the case of “E. coli expressed Hyalomma anatolicum serpin-1 (eHAMpin-1)”, the binding entry is reported as “no binding (tested: 1.5 μM)”.
